From PubChem BioAssay
Where “and” joins values, the source holds several entries; their conditions need not be identical. Equal entries are not always repeated. This is one part of the list. Shown are side measurements of this screen, not its main read-out; they come without a call.

Experiment: protection against mutant huntingtin cytotoxicity, PC12 cells, LDH release (AID 1610)
Conditions: PC12 mutant huntingtin toxicity, final LDH at 4 uM, stronger effect = lower value
`C=CC[C@@H]1/C=C(\C)C[C@H](C)C[C@H](OC)[C@H]2O[C@@](O)(C(=O)C(=O)N3CCCC[C@H]3C(=O)O[C@H](/C(C)=C/[C@@H]3CC[C@@H](O)[C@H](OC)C3)[C@H](C)[C@@H](O)CC1=O)[C@H](C)C[C@@H]2OC` showed a normalised LDH release of 0.934.
`CC(C[N+](C)(C)C)OC(N)=O` (centres undefined) showed a normalised LDH release of 0.929.
`NCCSSCCN` showed a normalised LDH release of 0.797.
Work on `CCCCCCc1ccc(O)cc1O` yielded a normalised LDH release of 0.891.
Work on `Nc1ccn(C2O[C@H](CO)[C@@H](O)[C@@H]2O)c(=O)n1` (some centres undefined) yielded a normalised LDH release of 0.413.
`NC[C@H]1O[C@H](O[C@H]2[C@H](O)[C@@H](O[C@H]3O[C@H](CO)[C@@H](O)[C@H](N)[C@H]3O)[C@H](N)C[C@@H]2N)[C@H](O)[C@@H](O)[C@@H]1O` gave a normalised LDH release of 0.938.
For `C#C[C@]1(O)CCC2C3CCC4=Cc5oncc5C[C@]4(C)C3CC[C@@]21C` (some centres undefined), the normalised LDH release was 1.05.
With `CCCCC1C(=O)N(c2ccccc2)N(c2ccc(O)cc2)C1=O` (centres undefined) the normalised LDH release was 0.599.
Compound `Cc1nnc(SCC2=C(C(=O)O)N3C(=O)[C@@H](NC(=O)Cn4cnnn4)[C@H]3SC2)s1` has a normalised LDH release of 0.738.
`CSc1ccc2c(c1)N(CCC1CCCCN1C)c1ccccc1S2` (centres undefined) showed a normalised LDH release of 0.997.
For `Fc1ccc(C(c2ccccc2)(c2ccccc2F)n2ccnc2)cc1` (centres undefined), the normalised LDH release was 1.06 and 0.892.
In the case of `CN(C)C(=O)Oc1ccc[n+](C)c1`, the normalised LDH release is reported as 0.781.
In the case of `C[C@@H]1O[C@@H](O[C@H]2[C@H](Oc3cc(O)c4c(c3)O[C@H](c3ccc(O)cc3)CC4=O)O[C@H](CO)[C@@H](O)[C@@H]2O)[C@H](O)[C@H](O)[C@H]1O`, the normalised LDH release is reported as 1.06.
With `CCCNCC(O)COc1ccccc1C(=O)CCc1ccccc1` (centres undefined) the normalised LDH release was 1.27.
